Drawing on US20240400690A1 (BIO THERA SOLUTIONS, published 2024), this text covers binding for 1 molecule.

These are yes or no findings as the source states them, for the method shown. Some binding calls cover weakened binding; strength is not graded here.

This experiment deals with T1, B7-H3 on tumour cells (MDA-MB-468 cells, N87 cells) (UniProt Q5ZPR3).
T1 sequence (looked up): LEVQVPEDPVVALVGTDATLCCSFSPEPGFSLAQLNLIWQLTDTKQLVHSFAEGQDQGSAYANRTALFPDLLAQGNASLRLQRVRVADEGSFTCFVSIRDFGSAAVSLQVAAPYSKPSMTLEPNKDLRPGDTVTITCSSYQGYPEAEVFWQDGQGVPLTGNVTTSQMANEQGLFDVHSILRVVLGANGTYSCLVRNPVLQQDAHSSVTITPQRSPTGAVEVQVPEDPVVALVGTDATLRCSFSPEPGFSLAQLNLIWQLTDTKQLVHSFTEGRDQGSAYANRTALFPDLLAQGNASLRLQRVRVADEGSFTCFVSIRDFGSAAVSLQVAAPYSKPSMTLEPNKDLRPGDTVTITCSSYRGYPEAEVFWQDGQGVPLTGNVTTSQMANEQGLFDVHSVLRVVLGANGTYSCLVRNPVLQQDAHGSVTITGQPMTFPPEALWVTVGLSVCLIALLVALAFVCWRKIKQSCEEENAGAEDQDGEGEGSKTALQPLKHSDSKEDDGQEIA
Nature of the experiment: flow cytometry on MDA-MB-468 cells, PE goat anti-human IgG Fc secondary.

B1: control antibody M30-H1-L4 (antibody, human IgG1, kappa, V domains shown)
VH: QVQLVQSGAEVKKPGSSVKVSCKASGYTFTNYVMHWVRQAPGQGLEWMGYINPYNDDVKYNEKFKGRVTITADESTSTAYMELSSLRSEDTAVYYCARWGYYGSPLYYFDYWGQGTLVTVSS
VL: EIVLTQSPATLSLSPGERATLSCRASSRLIYMHWYQQKPGQAPRPLIYATSNLASGIPARFSGSGSGTDFTLTISSLEPEDFAVYYCQQWNSNPPTFGQGTKVEIKR
notes: Control anti-B7-H3 antibody; also called HIL4
B1: the binding entry is reported as “binds”.
